Reference: paper doi:10.1101/2024.05.31.596772

Molecular target: microtubules (pig (purified from porcine brain))
Experiment: in vitro microtubule dynamics assay

| binding | Binder |
| --- | --- |
| binds | GFP-CAMSAP3 CKK (domain or fragment, UniProt Q80VC9 1112-1246) GPRLYKEPSAKSNKFIIHNALSHCCLAGKVNEPQKNRILEEIEKSKANHFLILFRDSSCQFRALYTLSGETEELSRLAGYGPRTVTPAMVEGIYKYNSDRKRFTQIPAKTMSMSVDAFTIQGHLWQSKKPTTPKK |
| binds | GFP-CAMSAP3 (protein, UniProt Q80VC9 1-1252) MVEAAPAGSGPLRRTFLVPEIKSLDQYDFSRAKAAASLAWVLRAAFGGAEHVPPELWEPFYTDQYAQEHVKPPVTRLLLSAELYCRAWRQALPQLEPSPSPSALLALLARRGTVPSLPEHPVREADLKHQPILMGAHLAVIDALMVAFSFEWTKTLPGPLALSSLEHKLLFWVDTTVRRLQEKTEQEAAQRASPAAPLDGASPAQPSIRYRKDRAIARRAPCFPNVTTLQDLASGAALAATIHCYCPQLLRLEEVCLKDPMSVADSLYNLQLVQDFCASHLPRGCPLSLEDLLYVPPPLKVNLVVLLAEMYMCFEVLKPDFVQAKDLPDGHAVSPRNTETVPSQNNSGSSSPVFNFRHPLLSPGGPQSPLRGSTGSLKSSPSMSHMEALGKAWNRQLSRPLSQAVSFSTPFGLDSDVDVVMGDPVLLRSVSSDSLGPPRPVSTSSRNSAQPAPESGDLPTIEEALQIIHSAEPRLLPDGAADGSFYLHSPEGLSKPPLSPYPPEGASKPLSDRLNKAPIYISHPENPSKSSPCSTGEILKPPPPSEGSPKAVASSPAANNSEVKMTSFAERKKQLVKAEAESGLGSPTSTPVAPEALSSEMSELGARLEEKRRAIEAQKRRIEAIFAKHRQRLGKSAFLQVQPREAAGEAEEEAELGSVPGGERPAGEGQGEPSLRHKSVTFSPDLGPVPPEGLGDYNRAVSKLSAALSSLQRDMQRLTDQQQRLLAPPEAPGPAPPPAAWVIPGPATGPKAASPSPARRAPAARRSPGPGPSPTPRSPKHARPAELKLAPLTRVLTPPHDVDSLPHLRKFSPSQVPVQTRSSILLSEGTPPEEPTTKPALIEIPLASLGEPAADEEGDGSPPGAEDSLEEEASSEGEPRSGLGFFYKDEDKPEDEMAQKRASLLERQQRRVEEARRRKQWQEAEKEQKREEAARLAQEAPGLAFTTPVVASAAPVATLAPTTRAMAPAEEEVGPRRGDFTRLEYERRAQLKLMDDLDKVLRPRASGTGGPGRGGRRATRPRSGCCDDSALARSPARGLLGSRLSKVYSQSTLSLSTVANEAPNNLGVKRPTSRAPSPSGLMSPSRLPGSRERDWENGSNASSPASVPEYTGPRLYKEPSAKSNKFIIHNALSHCCLAGKVNEPQKNRILEEIEKSKANHFLILFRDSSCQFRALYTLSGETEELSRLAGYGPRTVTPAMVEGIYKYNSDRKRFTQIPAKTMSMSVDAFTIQGHLWQSKKPTTPKKGGGTPK |

These are yes or no findings as the source states them, for the method shown. Binding can be weak; no strength is given. Where a sequence is shown, tags or fusion partners need not be part of it.
